Results as given in publication doi:10.1101/2020.07.23.217018.
Read-outs that look alike come from different tables or passages of the source. No constants are given. Whether binding was seen depends on the method and setting. Binding seen in cells or lysates may run through a third protein. A yes stands for co-enrichment or nearness to the bait. Other partners may have been found. For some of these results: A no says only that the protein was not detected with the bait. One block for each molecule: values may come before it.

Sequences of proteins named here, by UniProt entry; tags and fusion partners are left off. Residues count along the entry.
UniProt P70232, residues 26-1209: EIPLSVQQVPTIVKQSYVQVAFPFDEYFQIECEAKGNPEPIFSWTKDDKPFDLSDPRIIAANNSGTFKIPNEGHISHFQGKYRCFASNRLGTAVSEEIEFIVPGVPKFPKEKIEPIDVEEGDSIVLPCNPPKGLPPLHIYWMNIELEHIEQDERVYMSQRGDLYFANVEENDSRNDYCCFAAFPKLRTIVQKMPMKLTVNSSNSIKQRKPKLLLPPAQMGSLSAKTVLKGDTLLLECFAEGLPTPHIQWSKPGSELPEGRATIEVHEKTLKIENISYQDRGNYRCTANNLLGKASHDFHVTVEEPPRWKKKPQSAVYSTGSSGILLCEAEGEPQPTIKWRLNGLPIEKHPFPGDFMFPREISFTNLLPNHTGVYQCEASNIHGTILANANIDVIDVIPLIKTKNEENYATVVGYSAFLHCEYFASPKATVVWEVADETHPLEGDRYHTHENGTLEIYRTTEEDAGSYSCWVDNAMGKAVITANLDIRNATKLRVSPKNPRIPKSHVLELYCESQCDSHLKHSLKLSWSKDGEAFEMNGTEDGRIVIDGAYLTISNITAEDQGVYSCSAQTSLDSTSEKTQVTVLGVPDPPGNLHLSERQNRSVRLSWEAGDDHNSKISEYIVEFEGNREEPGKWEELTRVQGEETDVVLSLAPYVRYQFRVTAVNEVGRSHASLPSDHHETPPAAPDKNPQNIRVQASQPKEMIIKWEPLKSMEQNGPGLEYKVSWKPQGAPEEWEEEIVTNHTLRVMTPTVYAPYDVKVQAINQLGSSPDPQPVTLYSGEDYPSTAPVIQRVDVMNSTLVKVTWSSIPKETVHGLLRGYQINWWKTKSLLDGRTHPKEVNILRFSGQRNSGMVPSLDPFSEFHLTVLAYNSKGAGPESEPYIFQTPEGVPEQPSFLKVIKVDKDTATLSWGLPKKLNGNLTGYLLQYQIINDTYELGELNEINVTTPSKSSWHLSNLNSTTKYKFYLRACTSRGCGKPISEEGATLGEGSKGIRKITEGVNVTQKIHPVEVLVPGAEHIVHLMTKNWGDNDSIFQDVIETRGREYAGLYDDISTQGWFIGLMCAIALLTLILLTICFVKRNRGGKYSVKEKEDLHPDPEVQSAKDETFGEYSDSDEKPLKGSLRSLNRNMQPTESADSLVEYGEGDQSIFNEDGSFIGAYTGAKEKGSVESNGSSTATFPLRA
UniProt P02730: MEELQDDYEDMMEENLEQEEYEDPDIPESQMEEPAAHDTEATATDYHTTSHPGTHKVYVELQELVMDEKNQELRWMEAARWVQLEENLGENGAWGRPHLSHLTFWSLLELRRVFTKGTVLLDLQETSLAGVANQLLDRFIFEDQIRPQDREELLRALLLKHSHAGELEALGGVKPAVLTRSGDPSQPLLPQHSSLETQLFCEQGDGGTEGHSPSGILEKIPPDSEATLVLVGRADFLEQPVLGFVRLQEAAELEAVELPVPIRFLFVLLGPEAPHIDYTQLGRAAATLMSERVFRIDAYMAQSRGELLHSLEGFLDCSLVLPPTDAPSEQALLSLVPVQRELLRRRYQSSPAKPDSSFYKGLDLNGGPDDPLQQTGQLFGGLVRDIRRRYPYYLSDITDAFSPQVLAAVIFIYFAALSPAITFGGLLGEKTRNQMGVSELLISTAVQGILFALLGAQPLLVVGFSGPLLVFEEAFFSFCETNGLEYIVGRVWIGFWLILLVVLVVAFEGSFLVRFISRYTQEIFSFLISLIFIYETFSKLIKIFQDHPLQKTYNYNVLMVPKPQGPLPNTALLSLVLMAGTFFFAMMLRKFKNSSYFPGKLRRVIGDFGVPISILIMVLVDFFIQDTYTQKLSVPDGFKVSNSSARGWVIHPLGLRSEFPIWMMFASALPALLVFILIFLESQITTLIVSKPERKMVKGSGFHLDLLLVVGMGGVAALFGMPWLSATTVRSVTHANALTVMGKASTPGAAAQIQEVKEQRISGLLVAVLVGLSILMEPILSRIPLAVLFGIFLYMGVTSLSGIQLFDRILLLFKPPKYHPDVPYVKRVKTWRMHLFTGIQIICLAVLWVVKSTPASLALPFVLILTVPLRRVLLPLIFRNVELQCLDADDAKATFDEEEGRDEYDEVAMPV
UniProt P35441, residues 19-1170: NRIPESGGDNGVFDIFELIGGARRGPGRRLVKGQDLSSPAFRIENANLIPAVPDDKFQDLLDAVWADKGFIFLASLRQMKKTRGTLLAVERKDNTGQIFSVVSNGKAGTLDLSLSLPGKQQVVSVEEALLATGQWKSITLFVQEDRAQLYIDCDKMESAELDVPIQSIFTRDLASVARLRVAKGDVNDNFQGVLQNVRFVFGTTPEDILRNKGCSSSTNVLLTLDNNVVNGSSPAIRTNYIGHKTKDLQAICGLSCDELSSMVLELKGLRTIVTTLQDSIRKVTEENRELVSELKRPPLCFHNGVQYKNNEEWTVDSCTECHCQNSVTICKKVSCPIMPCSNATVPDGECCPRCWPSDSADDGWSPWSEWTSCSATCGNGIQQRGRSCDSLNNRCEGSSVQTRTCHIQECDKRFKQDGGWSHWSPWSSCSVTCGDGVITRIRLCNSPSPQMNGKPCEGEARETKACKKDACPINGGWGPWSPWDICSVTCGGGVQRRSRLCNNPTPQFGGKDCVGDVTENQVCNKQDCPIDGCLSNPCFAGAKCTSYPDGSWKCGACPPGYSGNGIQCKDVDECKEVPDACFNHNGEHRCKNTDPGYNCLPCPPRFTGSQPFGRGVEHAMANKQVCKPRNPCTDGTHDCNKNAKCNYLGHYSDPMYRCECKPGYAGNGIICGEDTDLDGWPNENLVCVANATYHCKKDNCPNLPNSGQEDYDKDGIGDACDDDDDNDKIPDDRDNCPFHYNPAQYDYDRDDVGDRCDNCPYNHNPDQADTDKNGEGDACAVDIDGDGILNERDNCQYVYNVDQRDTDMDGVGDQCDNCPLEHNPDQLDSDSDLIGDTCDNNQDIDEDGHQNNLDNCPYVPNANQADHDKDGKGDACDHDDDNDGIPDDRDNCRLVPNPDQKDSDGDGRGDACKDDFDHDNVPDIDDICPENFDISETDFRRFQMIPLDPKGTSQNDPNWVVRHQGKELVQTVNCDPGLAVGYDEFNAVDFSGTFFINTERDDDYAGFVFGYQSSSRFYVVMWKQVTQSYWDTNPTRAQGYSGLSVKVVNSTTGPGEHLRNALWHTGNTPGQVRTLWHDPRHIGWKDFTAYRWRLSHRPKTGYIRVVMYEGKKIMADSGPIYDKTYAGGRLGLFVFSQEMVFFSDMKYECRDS

Columns and labels:
[1] = target: T1, close homolog of L1 (human CHL1) (human (endogenous in serum EVs and LK2 EVs)) (UniProt O00533); assay: proximity labelling
T1 sequence: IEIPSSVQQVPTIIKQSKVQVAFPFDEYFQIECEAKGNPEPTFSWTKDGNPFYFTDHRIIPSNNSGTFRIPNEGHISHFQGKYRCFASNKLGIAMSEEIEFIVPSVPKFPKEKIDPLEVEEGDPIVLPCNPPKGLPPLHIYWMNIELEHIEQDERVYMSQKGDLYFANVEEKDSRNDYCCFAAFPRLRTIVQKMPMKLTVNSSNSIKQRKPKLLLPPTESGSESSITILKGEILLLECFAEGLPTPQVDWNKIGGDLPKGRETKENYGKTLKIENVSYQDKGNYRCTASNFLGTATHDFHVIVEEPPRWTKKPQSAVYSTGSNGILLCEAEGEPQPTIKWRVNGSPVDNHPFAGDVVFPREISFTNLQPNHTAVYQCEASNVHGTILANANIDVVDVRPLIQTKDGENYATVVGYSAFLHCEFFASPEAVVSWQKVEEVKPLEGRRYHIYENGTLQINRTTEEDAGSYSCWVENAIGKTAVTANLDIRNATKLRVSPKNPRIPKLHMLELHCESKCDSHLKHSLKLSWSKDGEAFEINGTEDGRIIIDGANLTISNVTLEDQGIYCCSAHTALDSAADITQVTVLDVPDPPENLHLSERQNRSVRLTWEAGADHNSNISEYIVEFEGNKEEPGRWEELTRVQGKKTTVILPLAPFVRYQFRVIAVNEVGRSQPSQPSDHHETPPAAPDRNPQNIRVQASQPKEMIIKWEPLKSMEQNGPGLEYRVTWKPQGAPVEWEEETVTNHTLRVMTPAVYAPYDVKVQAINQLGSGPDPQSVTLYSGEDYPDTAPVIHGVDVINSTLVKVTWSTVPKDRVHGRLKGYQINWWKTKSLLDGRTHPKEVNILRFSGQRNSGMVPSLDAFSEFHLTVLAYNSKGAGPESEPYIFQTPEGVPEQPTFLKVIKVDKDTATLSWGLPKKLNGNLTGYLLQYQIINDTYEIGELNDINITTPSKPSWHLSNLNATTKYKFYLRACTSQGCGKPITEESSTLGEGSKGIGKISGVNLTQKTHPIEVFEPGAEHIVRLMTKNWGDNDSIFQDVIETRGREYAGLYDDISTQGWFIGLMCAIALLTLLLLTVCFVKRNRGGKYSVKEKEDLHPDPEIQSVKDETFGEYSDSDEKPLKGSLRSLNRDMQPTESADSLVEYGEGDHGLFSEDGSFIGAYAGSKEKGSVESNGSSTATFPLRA

[2] = target: close homolog of L1 (mouse CHL1) (mouse (endogenous in serum EVs)) (UniProt P70232); assay: proximity labelling
[3] = target: T1, close homolog of L1 (human CHL1) (human (endogenous in serum EVs and LK2 EVs)); assay: proximity labelling; remark: listed apart in the source
[4] = target: T1, close homolog of L1 (human CHL1) (human (endogenous in serum EVs and LK2 EVs)); assay: proximity labelling; remark: listed apart in the source
[5] = target: close homolog of L1 (mouse CHL1) (mouse (endogenous in serum EVs)) (UniProt P70232); assay: proximity labelling; remark: listed apart in the source
[6] = target: close homolog of L1 (mouse CHL1) (mouse (endogenous in serum EVs)) (UniProt P70232); assay: proximity labelling; remark: listed apart in the source
[7] = target: close homolog of L1 (mouse CHL1) (mouse (endogenous in serum EVs)) (UniProt P70232); assay: condition: only in serum EVs of small tumor-bearing

binding [1]: binds
Molecule: SLC4A1 (human) (from UniProt P02730 1-911)

binding [5]: binds | binding [6]: binds
B1: SLC4A1 (mouse) (protein, UniProt P04919 1-929)
chain: MGDMRDHEEVLEIPDRDSEEELENIIGQIAYRDLTIPVTEMQDPEALPTEQTATDYVPSSTSTPHPSSGQVYVELQELMMDQRNQELQWVEAAHWIGLEENLREDGVWGRPHLSYLTFWSLLELQKVFSKGTFLLGLAETSLAGVANHLLDCFIYEDQIRPQDREELLRALLLKRSHAEDLGNLEGVKPAVLTRSGGASEPLLPHQPSLETQLYCGQAEGGSEGPSTSGTLKIPPDSETTLVLVGRANFLEKPVLGFVRLKEAVPLEDLVLPEPVGFLLVLLGPEAPHVDYTQLGRAAATLMTERVFRITASMAHNREELLRSLESFLDCSLVLPPTDAPSEKALLNLVPVQKELLRRRYLPSPAKPDPNLYNTLDLNGGKGGPGDEDDPLRRTGRIFGGLIRDIRRRYPYYLSDITDALSPQVLAAVIFIYFAALSPAVTFGGLLGEKTRNLMGVSELLISTAVQGILFALLGAQPLLVLGFSGPLLVFEEAFFSFCESNNLEYIVGRAWIGFWLILLVMLVVAFEGSFLVQYISRYTQEIFSFLISLIFIYETFSKLIKIFQDYPLQQTYAPVVMKPKPQGPVPNTALFSLVLMAGTFLLAMTLRKFKNSTYFPGKLRRVIGDFGVPISILIMVLVDSFIKGTYTQKLSVPDGLKVSNSSARGWVIHPLGLYRLFPTWMMFASVLPALLVFILIFLESQITTLIVSKPERKMIKGSGFHLDLLLVVGMGGVAALFGMPWLSATTVRSVTHANALTVMGKASGPGAAAQIQEVKEQRISGLLVSVLVGLSILMEPILSRIPLAVLFGIFLYMGVTSLSGIQLFDRILLLFKPPKYHPDVPFVKRVKTWRMHLFTGIQIICLAVLWVVKSTPASLALPFVLILTVPLRRLILPLIFRELELQCLDGDDAKVTFDEENGLDEYDEVPMPV

binding [5]: binds
B3: Pregnancy Zone Protein (mouse PZP) (protein, UniProt Q61838 25-1495)
chain: ATAKPQYVVLVPSEVYSGVPEKACVSLNHVNETVMLSLTLEYAMQQTKLLTDQAVDKDSFYCSPFTISGSPLPYTFITVEIKGPTQRFIKKKSIQIIKAESPVFVQTDKPIYKPGQIVKFRVVSVDISFRPLNETFPVVYIETPKRNRIFQWQNIHLAGGLHQLSFPLSVEPALGIYKVVVQKDSGKKIEHSFEVKEYVLPKFEVIIKMQKTMAFLEEELPITACGVYTYGKPVPGLVTLRVCRKYSRYRSTCHNQNSMSICEEFSQQADDKGCFRQVVKTKVFQLRQKGHDMKIEVEAKIKEEGTGIELTGIGSCEIANALSKLKFTKVNTNYRPGLPFSGQVLLVDEKGKPIPNKNITSVVSPLGYLSIFTTDEHGLANISIDTSNFTAPFLRVVVTYKQNHVCYDNWWLDEFHTQADHSATLVFSPSQSYIQLELVFGTLACGQTQEIRIHYLLNEDIMKNEKDLTFYYLIKARGSIFNLGSHVLSLEQGNMKGVFSLPIQVEPGMAPEAQLLIYAILPNEELVADAQNFEIEKCFANKVNLSFPSAQSLPASDTHLKVKAAPLSLCALTAVDQSVLLLKPEAKLSPQSIYNLLPGKTVQGAFFGVPVYKDHENCISGEDITHNGIVYTPKHSLGDNDAHSIFQSVGINIFTNSKIHKPRFCQEFQHYPAMGGVAPQALAVAASGPGSSFRAMGVPMMGLDYSDEINQVVEVRETVRKYFPETWIWDLVPLDVSGDGELAVKVPDTITEWKASAFCLSGTTGLGLSSTISLQAFQPFFLELTLPYSVVRGEAFTLKATVLNYMSHCIQIRVDLEISPDFLAVPVGGHENSHCICGNERKTVSWAVTPKSLGEVNFTATAEALQSPELCGNKLTEVPALVHKDTVVKSVIVEPEGIEKEQTYNTLLCPQDTELQDNWSLELPPNVVEGSARATHSVLGDILGSAMQNLQNLLQMPYGCGEQNMVLFVPNIYVLNYLNETQQLTEAIKSKAINYLISGYQRQLNYQHSDGSYSTFGNHGGGNTPGNTWLTAFVLKAFAQAQSHIFIEKTHITNAFNWLSMKQKENGCFQQSGYLLNNAMKGGVDDEVTLSAYITIALLEMPLPVTHSAVRNALFCLETAWASISQSQESHVYTKALLAYAFALAGNKAKRSELLESLNKDAVKEEDSLHWQRPGDVQKVKALSFYQPRAPSAEVEMTAYVLLAYLTSESSRPTRDLSSSDLSTASKIVKWISKQQNSHGGFSSTQDTVVALQALSKYGAATFTRSQKEVLVTIESSGTFSKTFHVNSGNRLLLQEVRLPDLPGNYVTKGSGSGCVYLQTSLKYNILPVADGKAPFALQVNTLPLNFDKAGDHRTFQIRINVSYTGERPSSNMVIVDVKMVSGFIPMKPSVKKLQDQPNIQRTEVNTNHVLIYIEKLTNQTLGFSFAVEQDIPVKNLKPAPIKVYDYYETDEFTVEEYSAPFSDGSEQGNA

More lines, now with the values behind:

Molecule: Thrombospondin 1 (mouse THBS1) (from UniProt P35441 19-1170)
binding [2]: binds

Molecule: caspase 14 (human)
binding [3]: binds | binding [4]: binds | binding [1]: binds

B2: CD5L (mouse) (protein, UniProt Q9QWK4 22-352)
chain: ESPTKVQLVGGAHRCEGRVEVEHNGQWGTVCDDGWDRRDVAVVCRELNCGAVIQTPRGASYQPPASEQRVLIQGVDCNGTEDTLAQCELNYDVFDCSHEEDAGAQCENPDSDLLFIPEDVRLVDGPGHCQGRVEVLHQSQWSTVCKAGWNLQVSKVVCRQLGCGRALLTYGSCNKNTQGKGPIWMGKMSCSGQEANLRSCLLSRLENNCTHGEDTWMECEDPFELKLVGGDTPCSGRLEVLHKGSWGSVCDDNWGEKEDQVVCKQLGCGKSLHPSPKTRKIYGPGAGRIWLDDVNCSGKEQSLEFCRHRLWGYHDCTHKEDVEVICTDFDV
binding [7]: no binding | binding [5]: binds
